Experimental data: publication PMC10721647
No constants are given. Whether binding was seen depends on the method and setting. In cells and extracts the contact can be indirect. Here binding means that the protein was enriched with, or labelled near, the bait; the list need not be complete.

The substances below were run against FLAG-BPLF1, viral ubiquitin deconjugase (vDUB) encoded in the N-terminal domain (aa 1-235) of the Epstein-Barr virus large tegument protein BPLF1 (Epstein-Barr virus) (UniProt P03186) (assay: affinity purification with mass spectrometry; anti-FLAG immunoprecipitates of cells transfected with FLAG-BPLF1 or FLAG-BPLF1 C61A against FLAG-empty vector, biological duplicates; hits need at least four unique spectral counts; mass spectrometry data previously reported (ref. 43) and reanalysed here).

Substance | binding
eIF4E2, translation initiation complex subunit (from UniProt O60573 1-245) | binds
eIF5A, ribosome pause release factor (from UniProt P63241 1-154) | binds
eIF4G1, translation initiation complex subunit (from UniProt Q04637 1-1599) | binds
eIF4G2, translation initiation complex subunit (from UniProt P78344 1-907) | binds
